Laboratory results: PubChem BioAssay AID1224828 (NIAID, 2016)

- Aim: 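Regulators linking TLR4 signalling to p65 nuclear translocation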 (primary screen)
- Cells: mouse RAW264.7 G9 macrophage reporter cells (GFP-p65, Tnf promoter-mCherry)
- Knock-down reagent: siRNA pool against mouse genes, 100 nM
- Timing: 2 days siRNA transfection, then 40 min LPS before fixation
- Treatment: LPS (Salmonella minnesota R595) at 10 ng/ml
- Detection: 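Imaged p65 nuclear translocation ratio, normalised to the plate median, converted to robust z-scores and averaged across two replicates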
- Direction: p65 translocation robust z-score: higher = more nuclear NF-kappaB p65 after LPS than the plate median; nuclear/cytoplasmic p65 ratio: higher = more nuclear NF-kappaB p65
- Hit rule: 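Active if robust z is above 3.3 (negative regulators) or below -1.56, the Tlr4 control median (positive regulators); activity score 50 or more; control wells not called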
- Meaning of the calls: active = hit (p65 shift raised or lowered); inactive = no clear change
In all, the deposit lists about 17,000 reagents; shown is an unselected part. 762 of all reagents (4.5%) were called active. 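Active calls include both raised and lowered p65 entry, mostly lowered; wells with fewer than 50 cells lack a z-score.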 Raw values vary from plate to plate and are shown uncorrected. Entries without a mark were called inactive.

Gene	p65 translocation robust z-score	nuclear/cytoplasmic p65 ratio, rep 1	nuclear/cytoplasmic p65 ratio, rep 2	low cell count flag
Krt76	-0.12	1.64	1.56	enough cells to score
Grm6		1.58	1.79	fewer than 50 cells per well; well left out of scoring
Rgs6	0.55	1.62	1.63	enough cells to score
Prkag1	-0.13	1.67	1.44	enough cells to score
Msrb1	-1.3	1.27	1.08	enough cells to score
Tead1	1.33	1.7	1.71	enough cells to score
Or5ac20	0.6	1.68	1.52	enough cells to score
Cbll1	-0.17	1.57	1.75	enough cells to score
Myoc	-0.04	1.33	1.44	enough cells to score
Clcn1	0.59	1.49	1.5	enough cells to score
Fev	-2.01 (active)	1.28	1.21	enough cells to score
Tm6sf2	0.96	1.48	1.3	enough cells to score
Tagap		0	1.82	fewer than 50 cells per well; well left out of scoring
Axl	-1.02	1.53	1.26	enough cells to score

The list goes on (3 carried over from the part before).
Gene	p65 translocation robust z-score	nuclear/cytoplasmic p65 ratio, rep 1	nuclear/cytoplasmic p65 ratio, rep 2	low cell count flag
Tm6sf2	0.96	1.48	1.3	enough cells to score
Tagap		0	1.82	fewer than 50 cells per well; well left out of scoring
Axl	-1.02	1.53	1.26	enough cells to score
Gata2	0.88	1.52	1.52	enough cells to score
Dennd10	1.53	1.52	1.52	enough cells to score
Fbxw2		1.38	1.1	fewer than 50 cells per well; well left out of scoring
Mbd3	-0.35	1.44	1.26	enough cells to score
Tlr3		1.52	1.43	fewer than 50 cells per well; well left out of scoring
Rab5c	-0.77	1.5	1.32	enough cells to score
Cenpe	-0.56	1.39	1.31	enough cells to score
Rap1a	-0.53	1.43	1.45	enough cells to score
1700009J07Rik		1.47	1.36	fewer than 50 cells per well; well left out of scoring
Chrna5	-1.33	1.32	1.18	enough cells to score
